Assay results published in paper PMC8329294.
No constants are given. Whether binding was seen depends on the method and setting. Binding seen in cells or lysates may run through a third protein. Some entries that bind do so weakly or less than the wild type.

Protein sequences, listed by entry. Tags and fused reporters are not part of them.
UniProt P19474: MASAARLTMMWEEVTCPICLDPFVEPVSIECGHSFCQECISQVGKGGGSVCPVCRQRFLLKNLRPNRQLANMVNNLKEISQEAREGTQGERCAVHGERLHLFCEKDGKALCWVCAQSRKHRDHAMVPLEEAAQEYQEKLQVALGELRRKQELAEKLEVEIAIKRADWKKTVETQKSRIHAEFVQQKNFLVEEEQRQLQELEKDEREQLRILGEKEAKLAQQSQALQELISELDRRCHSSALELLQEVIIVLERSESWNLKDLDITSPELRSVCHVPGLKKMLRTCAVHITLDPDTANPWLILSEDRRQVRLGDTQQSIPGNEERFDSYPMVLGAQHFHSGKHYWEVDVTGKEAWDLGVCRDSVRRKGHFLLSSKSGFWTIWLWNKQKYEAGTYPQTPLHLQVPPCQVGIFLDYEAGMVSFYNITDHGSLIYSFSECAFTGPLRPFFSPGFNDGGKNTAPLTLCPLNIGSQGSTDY
UniProt P49915: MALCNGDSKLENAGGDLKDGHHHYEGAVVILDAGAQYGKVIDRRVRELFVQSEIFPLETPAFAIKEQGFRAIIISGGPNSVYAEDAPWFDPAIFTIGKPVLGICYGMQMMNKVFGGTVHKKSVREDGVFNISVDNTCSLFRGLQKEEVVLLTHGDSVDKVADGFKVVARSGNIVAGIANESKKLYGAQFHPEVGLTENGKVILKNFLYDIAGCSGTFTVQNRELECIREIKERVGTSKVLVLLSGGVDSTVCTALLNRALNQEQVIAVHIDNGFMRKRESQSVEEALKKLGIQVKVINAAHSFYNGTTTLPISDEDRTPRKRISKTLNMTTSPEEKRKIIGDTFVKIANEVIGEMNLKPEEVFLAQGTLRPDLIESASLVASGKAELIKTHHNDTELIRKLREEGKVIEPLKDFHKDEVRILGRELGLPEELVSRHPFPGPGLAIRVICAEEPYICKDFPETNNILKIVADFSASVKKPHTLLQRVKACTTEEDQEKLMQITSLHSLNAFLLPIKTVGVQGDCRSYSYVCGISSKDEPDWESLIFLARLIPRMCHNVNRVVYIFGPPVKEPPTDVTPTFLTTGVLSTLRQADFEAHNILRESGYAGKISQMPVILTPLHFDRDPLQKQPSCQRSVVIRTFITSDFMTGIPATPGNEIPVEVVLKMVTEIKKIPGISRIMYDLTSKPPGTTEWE

Columns and labels:
[1] = biological target: E3 ubiquitin ligase TRIM21, endogenous (human (endogenous in MCF-7 and DU4475)) (UniProt P19474); assay: co-IP; endogenous proteins in lysates of MCF-7 and DU4475 cells (SNORD50A/B knocked out, ectopically expressed, restored, or control); lysates with the indicated antibody or IgG at 4 °C for 4-5 h, then protein A/G-agarose beads at 4 °C overnight; western blot
[2] = biological target: TRIM21 (pcDNA3.1-TRIM21) (human) (UniProt P19474); assay: co-IP; HIS-GMPS and TRIM21 co-expressed in 293T cells (control, SNORD50A/B-deleted, SNORD50A/B re-expressed); immunoprecipitation and western blot
[3] = biological target: Guanosine 5'-monophosphate synthase (GMPS), endogenous (human (endogenous in MCF-7 and DU4475)) (UniProt P49915); assay: co-IP; endogenous proteins in lysates of MCF-7 and DU4475 cells (SNORD50A/B knocked out, ectopically expressed, restored, or control); lysates with the indicated antibody or IgG at 4 °C for 4-5 h, then protein A/G-agarose beads at 4 °C overnight; western blot

binding [3]	Substance	also measured
	Guanosine 5'-monophosphate synthase (GMPS), endogenous (from UniProt P49915 1-693)	binding [1]: binds
	His-GMPS (pcDNA3.1-HIS-GMPS) (from UniProt P49915 1-693)	binding [2]: binds
binds	USP7, endogenous (from UniProt Q93009 1-1102) (enzyme)	
binds	p53 (wild-type), endogenous (from UniProt P04637 1-393)	
